Here are results for nine molecules from patent US20140154245A1 (L AND K BIOMED, published 2014).

These are yes or no findings as the source states them, for the method shown. Some results given as binding are weak or reduced against the parent protein; the word gives no strength.

Test [1] concerns the target T1, human EMAPII (endothelial monocyte activating polypeptide II) antigen (human) (UniProt Q12904).
T1 sequence: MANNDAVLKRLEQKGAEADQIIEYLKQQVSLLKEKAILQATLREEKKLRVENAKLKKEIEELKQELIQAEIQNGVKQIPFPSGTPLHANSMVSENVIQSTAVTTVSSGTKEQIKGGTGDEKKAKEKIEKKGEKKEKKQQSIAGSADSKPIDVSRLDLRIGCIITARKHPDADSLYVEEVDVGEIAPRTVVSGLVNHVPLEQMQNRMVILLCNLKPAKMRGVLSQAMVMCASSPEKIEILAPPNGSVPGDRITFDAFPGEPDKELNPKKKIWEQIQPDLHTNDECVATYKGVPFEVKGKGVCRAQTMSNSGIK
Description: antigen-binding ELISA screen of CHO-S supernatants, specific activity (affinity/quant) against chimeric BAP015-1.

Test [2] concerns the target T1, human EMAPII (endothelial monocyte activating polypeptide II) antigen (human). Description: enzyme immunoassay of hybridoma culture supernatant on the antigen.
For test [3] the target is unchanged. Description: ELISA, EMAPII antigen coated on the plate. For orientation: In an ELISA, binding on a coated surface is turned into a signal by an enzyme label.
Test [4] shares this target. Description: ELISA, EMAPII antigen coated at 2.5 ug/ml, detected with anti-human-IgG HRP conjugate.

B1: BAP015hum04 (antibody, human IgG1, V domains shown)
VH: EVQLVQSGAEVKKPGATVKISCKVSGYTFTSYTMHWVRQAPGQGLEWMGYINPSSGFTNYNQKFKDRVTISADKSISTAYLQWSSLKASDTAMYYCASRFAYWGQG
VL: AIQLTQSPSSLSASVGDRVTITCKASQDVSTAVAWYQQKPGKAPKLLIYSASYRYTGVPSRFSGSGSGTDFTFTISSLQPEDIATYYCQQHYSTPYTFGQG
B1: the binding result in test [1] is given as “binds”.

B2: BAP015hum05 (antibody, human IgG1, V domains shown)
VH: EVQLVQSGAEVKKPGATVKISCKVSGYTFTSYTMHWVRQAPGQGLEWMGYINPSSGFTNYNQKFKDRVTISADKSISTAYLQWSSLKASDTAMYYCASRFAYWGQG
VL: DIVMTQTPLSLPVTPGEPASISCKASQDVSTAVAWYQQKPGKAPKLLIYSASYRYTGVPSRFSGSGSGTDFTFTISSLQPEDIATYYCQQHYSTPYTFGQG
B2: in test [1], the binding entry is “binds”.

B3: BAP015hum03 (antibody, human IgG1, V domains shown)
VH: EVQLVQSGAEVKKPGATVKISCKVSGYTFTSYTMHWVRQAPGQGLEWMGYINPSSGFTNYNQKFKDRVTISADKSISTAYLQWSSLKASDTAMYYCASRFAYWGQG
VL: AIQLTQSPSSLSASVGDRVTITCKASQDVSTAVAWYQQKPGKAPKLLIYSASYRYTGVPSRFSGSGSGTDFTFTISRLEPEDFAVYYCQQHYSIPYTFGQG
On to B3, for which the binding result in test [1] is listed as “binds”.

B4: BAP015hum02 (antibody, human IgG1, V domains shown)
VH: EVQLVQSGAEVKKPGATVKISCKVSGYTFTSYTMHWVRQAPGQGLEWMGYINPSSGFTNYNQKFKDRVTISADKSISTAYLQWSSLKASDTAMYYCASRFAYWGQG
VL: AIQLTQSPSSLSASVGDRVTITCKASQDVSTAVAWYQQKPGKAPKLLIYSASYRYTGIPPRFSGSGYGTDFTLTINNIESEDAAYYFCQQHYSTPYTFGQG
On to B4, for which, in test [1], the binding entry is “binds”.

B5: BAP015hum06 (antibody, human IgG1, V domains shown)
VH: EVQLVQSGAEVKKPGATVKISCKVSGYTFTSYTMHWVRQAPGQGLEWMGYINPSSGFTNYNQKFKDRVTISADKSISTAYLQWSSLKASDTAMYYCASRFAYWGQG
VL: EIVLTQSPDFQSVTPKEKVTITCKASQDVSTAVAWYQQKPGKAPKLLIYSASYRYTGVPSRFSGSGSGTDFTFTISSLQPEDIATYYCQQHYSTPYTFGQG
In the case of B5, the binding entry in test [1] is recorded as “binds”.

B6: BAP015hum07 (antibody, human IgG1, V domains shown)
VH: EVQLVQSGAEVKKPGATVKISCKVSGYTFTSYTMHWVRQAPGQGLEWMGYINPSSGFTNYNQKFKDRVTISADKSISTAYLQWSSLKASDTAMYYCASRFAYWGQG
VL: EIVLTQSPDFQSVTPKEKVTITCKASQDVSTAVAWYLQKPGQSPQLLIYSASYRYTGVPSRFSGSGSGTDFTFTISSLQPEDIATYYCQQHYSTPYTFGQG
Regarding B6, the binding result in test [1] is reported as “binds”.

B7: BAP015hum01 (antibody, human IgG1, V domains shown)
VH: EVQLVQSGAEVKKPGESLRISCKGSGYTFTSYTMHWIRQSPSRGLEWLGYINPSSGFTNYNQKFKDRVTITADKSTSTAYMELSSLRSEDTAVYYCASRFAYWGQG
VL: AIQLTQSPSSLSASVGDRVTITCKASQDVSTAVAWYQQKPGQAPRLLIYSASYRYTGVPSRFSGSGSGTDFTFTISSLEAEDAATYYCQQHYSTPYTFGQG
With B7, the binding result in test [1] was “binds”.

B8: mouse anti-EMAPII monoclonal antibody (antibody, V domains shown)
VH: QVQLQQSGAELARPGASVKMSCKASGYTFTSYTMHWVKQRPGQGLEWIGYINPSSGFTNYNQKFKDKATLTADKSSSTAYMQLSSLTSEDSAVYYCASRFAYWGQG
VL: DIVMTQSHKFMSTSVGDRVSITCKASQDVSTAVAWYQQKPGQSPKLLIFSASYRYTGVPDRFTGSGSGTDFTFTISSVQAEDLAVYYCQQHYSTPYTFGQG
notes: Mouse IgG1 with kappa light chain, from a hybridoma; also called murine EMAPII mAb; parental murine anti-EMAPII antibody
For the molecule B8, in test [2], the binding result is “binds”.

B9: mouse/human chimeric antibody BAP015-1 (antibody, V domains shown)
VH: QVQLQQSGAELARPGASVKMSCKASGYTFTSYTMHWVKQRPGQGLEWIGYINPSSGFTNYNQKFKDKATLTADKSSSTAYMQLSSLTSEDSAVYYCASRFAYWGQG
VL: DIVMTQSHKFMSTSVGDRVSITCKASQDVSTAVAWYQQKPGQSPKLLIFSASYRYTGVPDRFTGSGSGTDFTFTISSVQAEDLAVYYCQQHYSTPYTFGQG
notes: VL is fused to a human kappa constant region and VH to a human IgG1 constant region (full-length IgG1, from CHO-S supernatant); Three plasmid clones of the same construct were tested; they are treated as one molecule; also called chimeric anti-EMAPII antibody; chimeric clone BAP015-1
For the molecule B9, the binding result in test [3] and in test [4] was “binds” each time.
